Record: PubChem BioAssay AID1159578 (Peter MacCallum Cancer Centre, 2015)
This is one part, drawn at random, of about 18,000 reagents tested. Of all reagents, about 1,030 (5.7%) are marked active. 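Inactive calls also include pools with fewer than 3300 nuclei, whose migration was not assessed.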 Raw values are not corrected between plates. Further read-outs or replicates are left out here.

Aim: 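siRNA pools altering how lymphatic endothelial cells close a scratch wound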 (primary screen)
Cells: human lymphatic endothelial cells
Reagent: siRNA pool against human genes, 40 nM
Time to read-out: 48 h after transfection
Read-out: 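Cells stained with dye and imaged after a scratch; covered wound area and nuclei counted, duplicates averaged, migration set against mock wells and turned into a robust z-score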
Scale: migration robust z-score: higher = faster migration into the scratch; nuclei per well: higher = more cells in the well
Call rule: 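Pools averaging fewer than 3300 nuclei are never called; remaining pools count as changed when migration robust z lies outside -2 to 2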
Calls: active = migration changed; inactive = no migration change, or too few cells

Gene | migration robust z-score | nuclei per well, duplicate mean | Call
MMS19 | 0.06 | 7072 | inactive
SLC27A5 | 0.52 | 5876 | inactive
RNF113B | 0.1 | 4034 | inactive
TMEM144 | -0.11 | 5782 | inactive
CCDC184 | -0.74 | 5664 | inactive
KIF5C | 1.5 | 5868 | inactive
FBXO22 | -0.99 | 5220 | inactive
PPP2R5B | -1.01 | 5235 | inactive

Part of the list above, set out differently:
{"Gene": "SLC27A5", "migration robust z-score": 0.52, "nuclei per well, duplicate mean": 5876, "Call": "inactive"}
{"Gene": "RNF113B", "migration robust z-score": 0.1, "nuclei per well, duplicate mean": 4034, "Call": "inactive"}

The list goes on:
Gene | migration robust z-score | nuclei per well, duplicate mean | Call
UPK1B | 1.2 | 6217 | inactive
DLEU7 | -0.82 | 6335 | inactive
BANK1 | -0.22 | 7102 | inactive
KRTAP5-7 | 1.44 | 5646 | inactive
RPL8 | -0.52 | 3770 | inactive
NPAS4 | 1.94 | 6092 | inactive
SLC18A1 | -0.08 | 6785 | inactive
CST5 | -1.95 | 5398 | inactive
UBE2I | 0.31 | 5448 | inactive
ZKSCAN2 | 1.14 | 4913 | inactive
ORC6 | 0.4 | 6258 | inactive
BRINP1 | -0.46 | 5719 | inactive
SLC67A2 | 0.51 | 4800 | inactive
CDY2A | -1.04 | 4365 | inactive
CARHSP1 | -0.64 | 5381 | inactive
